Test results taken from article PMC10545676.
Results are given in words; binding and its absence hold for the method and conditions named. In cells and extracts the contact can be indirect.

Sequences of proteins named here, by UniProt entry; tags and fusion partners are left off. Residues count along the entry.
UniProt P07996, residues 19-1170: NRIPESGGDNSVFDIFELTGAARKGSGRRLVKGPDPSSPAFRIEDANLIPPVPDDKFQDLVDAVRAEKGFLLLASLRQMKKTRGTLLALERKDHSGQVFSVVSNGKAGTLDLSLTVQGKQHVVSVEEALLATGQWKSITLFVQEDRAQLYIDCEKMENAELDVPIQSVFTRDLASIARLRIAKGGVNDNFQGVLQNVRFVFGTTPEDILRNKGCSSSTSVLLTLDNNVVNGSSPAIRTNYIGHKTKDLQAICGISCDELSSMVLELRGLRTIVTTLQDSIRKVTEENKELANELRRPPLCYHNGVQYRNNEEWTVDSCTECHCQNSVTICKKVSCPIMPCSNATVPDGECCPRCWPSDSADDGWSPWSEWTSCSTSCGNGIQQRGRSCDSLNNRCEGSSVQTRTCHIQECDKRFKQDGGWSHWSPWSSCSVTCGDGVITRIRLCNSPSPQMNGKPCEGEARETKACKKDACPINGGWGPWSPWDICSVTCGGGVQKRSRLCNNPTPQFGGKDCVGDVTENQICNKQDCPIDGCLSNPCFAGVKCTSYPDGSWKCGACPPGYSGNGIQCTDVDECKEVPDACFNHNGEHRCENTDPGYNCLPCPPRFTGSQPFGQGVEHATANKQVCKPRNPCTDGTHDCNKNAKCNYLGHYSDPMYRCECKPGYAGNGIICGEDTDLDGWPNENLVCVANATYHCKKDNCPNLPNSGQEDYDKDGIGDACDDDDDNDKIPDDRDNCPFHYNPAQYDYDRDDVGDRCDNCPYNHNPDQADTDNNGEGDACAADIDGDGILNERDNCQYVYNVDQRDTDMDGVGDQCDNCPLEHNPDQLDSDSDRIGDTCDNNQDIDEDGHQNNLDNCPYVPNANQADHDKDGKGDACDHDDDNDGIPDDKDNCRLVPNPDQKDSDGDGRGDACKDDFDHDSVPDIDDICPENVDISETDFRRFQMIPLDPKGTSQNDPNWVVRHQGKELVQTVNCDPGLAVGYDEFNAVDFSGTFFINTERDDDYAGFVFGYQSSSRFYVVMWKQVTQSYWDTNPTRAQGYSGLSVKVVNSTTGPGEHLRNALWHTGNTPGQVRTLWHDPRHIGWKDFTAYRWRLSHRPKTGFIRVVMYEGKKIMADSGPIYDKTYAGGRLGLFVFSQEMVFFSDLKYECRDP

Target: Thrombospondin 1 (THBS1) (human (endogenous in BEAS-2B)) (UniProt P07996)
Test: co-IP; BEAS-2B lysates in IP buffer, protein A/G agarose beads and anti-tag antibody overnight at 4 °C, washed with NaCl buffer, Western blot; cells under control, LPS + CIH, LPS + CIH + Ang-(1-7) or ad-THBS1 conditions; which protein was precipitated is not told

binding: no binding
B1: ULK2 (protein, UniProt Q8IYT8 1-1036)
chain: MEVVGDFEYSKRDLVGHGAFAVVFRGRHRQKTDWEVAIKSINKKNLSKSQILLGKEIKILKELQHENIVALYDVQELPNSVFLVMEYCNGGDLADYLQAKGTLSEDTIRVFLHQIAAAMRILHSKGIIHRDLKPQNILLSYANRRKSSVSGIRIKIADFGFARYLHSNMMAATLCGSPMYMAPEVIMSQHYDAKADLWSIGTVIYQCLVGKPPFQANSPQDLRMFYEKNRSLMPSIPRETSPYLANLLLGLLQRNQKDRMDFEAFFSHPFLEQGPVKKSCPVPVPMYSGSVSGSSCGSSPSCRFASPPSLPDMQHIQEENLSSPPLGPPNYLQVSKDSASTSSKNSSCDTDDFVLVPHNISSDHSCDMPVGTAGRRASNEFLVCGGQCQPTVSPHSETAPIPVPTQIRNYQRIEQNLTSTASSGTNVHGSPRSAVVRRSNTSPMGFLRPGSCSPVPADTAQTVGRRLSTGSSRPYSPSPLVGTIPEQFSQCCCGHPQGHDSRSRNSSGSPVPQAQSPQSLLSGARLQSAPTLTDIYQNKQKLRKQHSDPVCPSHTGAGYSYSPQPSRPGSLGTSPTKHLGSSPRSSDWFFKTPLPTIIGSPTKTTAPFKIPKTQASSNLLALVTRHGPAEEQSKDGNEPRECAHCLLVQGSERQRAEQQSKAVFGRSVSTGKLSDQQGKTPICRHQGSTDSLNTERPMDIAPAGACGGVLAPPAGTAASSKAVLFTVGSPPHSAAAPTCTHMFLRTRTTSVGPSNSGGSLCAMSGRVCVGSPPGPGFGSSPPGAEAAPSLRYVPYGASPPSLEGLITFEAPELPEETLMEREHTDTLRHLNVMLMFTECVLDLTAMRGGNPELCTSAVSLYQIQESVVVDQISQLSKDWGRVEQLVLYMKAAQLLAASLHLAKAQIKSGKLSPSTAVKQVVKNLNERYKFCITMCKKLTEKLNRFFSDKQRFIDEINSVTAEKLIYNCAVEMVQSAALDEMFQQTEDIVYRYHKAALLLEGLSRILQDPADIENVHKYKCSIERRLSALCHSTATV
